In patent publication US10835616B2 (POLYTHERICS LIMITED, priority 2014, dated 2020):

Legend:
[1] = test system: Fab of trastuzumab produced by papain digestion; experiment: PEGylation at a reduced Fab disulfide bond, HIC HPLC (Example 43); details: 22 h, 22° C., 1.5 eq. reagent per Fab
[2] = general procedure: peptide synthesis; HATU/NMM; details: conjugation step

COCCOCCOCCOCCOCCOCCOCCOCCOCCOCCOCCOCCOCCOCCOCCOCCOCCOCCOCCOCCOCCOCCOCCOCCNC(=O)c1ccc(C(=O)C(CS(=O)(=O)CCOCCOCCOCCOCCOCCOCCOC)CS(=O)(=O)CCOCCOCCOCCOCCOCCOCCOC)cc1F [Reagent 63, bis-mPEG(7u)-sulfone-propanoyl-2-fluoro-benzamide-PEG(24u)]
% conversion to PEGylated Fab [1]: 95%

COCCOCCOCCOCCOCCOCCOCCSC1=C(SCCOCCOCCOCCOCCOCCOCCOC)C(=O)N(CCOCCOCCOCCOCCOCCOCCOCCOCCOCCOCCOCCOCCOCCOCCOCCOCCOCCOCCOCCOCCOCCOCCOCCOCCC(=O)O)C1=O [Reagent 70, bis-mPEG(7u)-maleimide-PEG(24u)-acid]
% conversion to PEGylated Fab [1]: 90%

COCCOCCOCCOCCOCCOCCOCCNCC(CNCCOCCOCCOCCOCCOCCOCCOC)C(=O)c1ccc(C(=O)NCCOCCOCCOCCOCCOCCOCCOCCOCCOCCOCCOCCOCCOCCOCCOCCOCCOCCOCCOCCOCCOCCOCCOCCOCCC(=O)OC(C)(C)C)cc1 [Reagent 68, bis-mPEG(7u)-amino-propanoyl-benzamide-PEG(24u)-^tButyl ester]
% conversion to PEGylated Fab [1]: 90%

Bis-mPEG(7u)sulfone-propanoyl-benzamide-L-Glu-(val-cit-PAB-MMAE)-Glu-[HN-PEG(12u)-Me]2
conjugation yield [2]: 69%
